# Assay results reported in PubChem BioAssay AID758 (NMMLSC, 2007).
# Screen size: about 190,000 compounds; about 110 (0.058%) were called active. The inconclusive results got no clear call from the source; some entries with a clear call stand among them for comparison.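 The calls were made as follows: active = fluorescent GTP binding to Rab7 beads changed by at least 20 points from the 100% baseline, either direction, mostly lower; inconclusive = compound itself probably fluorescent, or too few beads counted; inactive = the rest.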
# Test system: Rab7 GTPase wild type (dog), Bodipy-FL-GTP binding
# Test: modulators of GTP binding to Rab7, primary screen, biochemical, wildtype, multiplex bead flow cytometry (AID 758);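 also: median green fluorescence of bound Bodipy-FL-GTP per Rab7 bead population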
# Conditions: GST-Rab7 beads, fluorescent GTP binding, at 10 µM, actives lie on both sides, untreated = 100%, excess cold GTP = 0%
row,SMILES,GTP binding activity (percent of control)
1,Cc1ccc(C)c(Cn2nnc3c(=O)[nH]c(C(=O)Nc4ccc(F)cc4)nc32)c1,inactive: 102%
2,Cc1nn(C)c(C(=O)NNC(=S)NC2CCCCC2)c1Cl,inconclusive: 99%
3,CCN(CC1COc2ccccc2O1)S(=O)(=O)c1ccc(C)cc1 (stereo unspecified),inactive: 96%
4,O=S(=O)(NCc1ccccn1)c1ccccc1,inconclusive: 103%
5,O=C(NNC(=O)C1CCN(S(=O)(=O)c2ccc(Cl)cc2)CC1)c1ccc(Cl)cc1,inconclusive: 96%
6,Cc1ccc(NC(=O)c2ccc3c(c2)C(=O)N(Cc2cccnc2)C3=O)c(C)c1,inactive: 108%
7,COc1ccc(CCNC(=S)NCc2ccc(Cl)c(Cl)c2)cc1OC,inconclusive: 95%
8,Cc1cc(C)c2c(N)c3cccc(C)c3nc2n1,inconclusive: 98%
9,CCOc1ccccc1C(=O)NC(CO)C(=O)O (stereo unspecified),inactive: 104%
10,O=C1c2ccccc2-c2nc3ccccc3nc21,inconclusive: 91%
11,Cc1nn(-c2ccccc2)c(Cl)c1C(=O)Nc1c(C)n(C)n(-c2ccccc2)c1=O,inconclusive: 93%
12,Cc1ccc(-n2c(SCC(=O)N3CCCc4ccccc43)nnc2-c2cccnc2)c(C)c1,inconclusive: 112%
13,CCOC(=O)CN=C(NS(=O)(=O)c1ccc(Cl)cc1)c1ccccc1,inactive: 94%
14,Cc1ccc(NC(=O)CNS(=O)(=O)c2cccs2)cc1F,inconclusive: 97%
15,CN(/N=C/c1ccncc1)C1=NS(=O)(=O)c2ccccc21,inconclusive: 80%
16,COC(=O)c1ccccc1NC(=O)c1cc2ncc(Br)cn2n1,inconclusive: 94%
17,Fc1ccc(/C=C\c2nccc3c2[nH]c2ccccc23)cc1,inconclusive: 99%
18,CC(C)NC(=O)Cn1cc(C(=O)COc2ccccc2)c2ccccc21,inactive: 98%
19,CCCN(CCC)CCNS(=O)(=O)c1ccc2c(c1)oc(=O)n2C,inconclusive: 102%
20,O=C(N/N=C/c1ccc(OCc2ccccc2)cc1)c1cc[n+](Cc2ccccc2)cc1,inconclusive: 102%
21,Cc1ccc(NC(=O)CN2C(=O)C3C4C=CC(C4)C3C2=O)cc1S(=O)(=O)N(C)C (stereo unspecified),inconclusive: 100%
22,Cc1ccc(C)c(N2CCN(C(=O)c3ccc4nc(-c5ccco5)c(-c5ccco5)nc4c3)CC2)c1,inconclusive: 91%
23,O=C(CSc1nc2cc(Cl)ccc2s1)c1ccco1,inconclusive: 92%
24,COc1cccc(C2SCC(=O)N2c2ccc(Br)cc2)c1OC (stereo unspecified),inactive: 96%
25,N#CC1=C(N)N(c2ncn[nH]2)C2=C(C(=O)CCC2)C1c1ccccc1 (stereo unspecified),inconclusive: 96%
26,N#Cc1c(Nc2ccccc2)c(/C=N/N=C/c2ccccc2)c[nH]c1=O,inactive: 81%

# 3 compounds from above, ordered by formula weight, high to low.
row,SMILES,GTP binding activity (percent of control)
3,CCN(CC1COc2ccccc2O1)S(=O)(=O)c1ccc(C)cc1 (stereo unspecified),inactive: 96%
26,N#Cc1c(Nc2ccccc2)c(/C=N/N=C/c2ccccc2)c[nH]c1=O,inactive: 81%
4,O=S(=O)(NCc1ccccn1)c1ccccc1,inconclusive: 103%
